# Measured values published in paper PMC7718915.
# These are yes or no findings as the source states them, for the method shown. Some results given as binding are weak or reduced against the parent protein; the word gives no strength.
# Target: lamin LIII (X. laevis (endogenous in oocyte nuclei)) (UniProt P10999)
# Experiment: cryo-electron tomography; nuclear envelopes of X. laevis oocytes spread on carbon grids, washed with low-salt buffer, plunge-frozen; filaments assembled in situ
binder,measurement,value
"lamin LIII (protein, UniProt P10999 1-583, farnesylated) MATSTPSRAREHASAAQSPGSPTRISRMQEKEDLRHLNDRLAAYIERVRSLEADKSLLKIQLEEREEVSSREVTNLRQLYETELADARKLLDQTANERARLQVELGKVREEYRQLQARNSKKENDLSLAQNQLRDLESKLNTKEAELATALSGKRGLEEQLQEQRAQIAGLESSLRDTTKQLHDEMLWRVDLENKMQTIREQLDFQKNIHTQEVKEIKKRHDTRIVEIDSGRRVEFESKLAEALQELRRDHEQQILEYKEHLEKNFSAKLENAQLAAAKNSDYASATREEIMATKLRVDTLSSQLNHYQKQNSALEAKVRDLQDMLDRAHDMHRRQMTEKDREVTEIRQTLQGQLEEYEQLLDVKLALDMEINAYRKMLEGEEQRLKLSPSPSQRSTVSRASTSQTSRLLRGKKRKLDETGRSVTKRSYKVVQQASSTGPVSVEDIDPEGNYVRLLNNTEEDFSLHGWVVKRMHMSLPEIAFKLPCRFILKSSQRVTIWAAGAGAVHSPPTDLVWKSQKTWGTGDNIKITLLDSTGEECAERTLYRVIGEEGETDEDFVEEEELERQFRSQSHQSVDPSCSIM",binding,binds
